# According to US20150073033A1, “BIOMARKERS FOR CANCER CHARACTERIZATION AND TREATMENT” (Board of Regents, The University of Texas System, priority 2011, published 2015):
# For at least one compound, name, drawing or mass did not settle the structure.
# Tests used:
# [1] = tested on: c-Jun; assay: EGF-induced c-Jun phosphorylation, immunoblotting; assay type: cell-based, human; details: U87/EGFR cells; SP600125 25 μM 30 min before EGF 6 h
# [2] = tested on: PKM2; assay: EGF-induced nuclear translocation of PKM2 (cell fractionation, immunoblotting, immunofluorescence); assay type: cell-based, human; details: U87/EGFR (and U251) cells; 30 min pretreatment before EGF 100 ng/mL; LY290042 30 μM, SU6656 4 μM, SP600125 25 μM, U0126 20 μM, AG1478 1 μM, cycloheximide 100 μg/mL
# Protocol: Immunoblotting analyses (b, b) were performed with the indicated antibodies. Nuclear PCNA and cytoplasmic tubulin were used as controls. a: The indicated cells were immunostained with an anti-PKM2 antibody.
# Immunoblotting and immunoprecipitation analyses were performed with the indicated antibodies. a: Nuclear fractions were prepared from U87/EGFR cells pretreated with LY290042 (30 μM), SU6656 (4 μM), SP600125 (25 μM), and U0126 (20 μM) for 30 min before EGF (100 ng/mL) for 6 h. Nuclear PCNA and cytoplasmic tubulin were used as controls. b: U87/EGFR cells were pretreated with or without U0126 (20 μM) for 30 min before EGF (100 ng/mL) for 6 h. Immunofluorescence analyses were performed with the indicated antibodies. Nuclei were stained with Hoechst 33342 (blue). c: U251 cells were stably transfected with a vector with or without expressing FLAG-ERK2 K52R (left panel) or transiently transfected with vectors expressing MEK1 Q56P and indicated FLAG-tagged ERK2 proteins (right panel). The cells were treated with or without EGF (100 ng/mL) for 6 h, and the total cell lysates and nuclear fractions were prepared. d: FLAG-PKM2 or FLAG-PKM1 was immunoprecipitated with an anti-FLAG antibody from U87/EGFR cells treated with or without EGF (100 ng/mL) for 30 min. e: Bacterially-purified GST-ERK2 immobilized on glutathione agarose beads was mixed with or without purified His-PKM2. […]
smiles,measurement,setting,value
Oc1c2ccccc2c2c3c(cccc13)N=N2 [SP600125],EGF-induced phosphorylation of c-Jun,[1],blocked
same,EGF-induced nuclear accumulation/translocation of PKM2,[2],only inhibition of MEK/ERK abrogated
